Assay [1] deals with T1, phosphatidylethanolamine-binding protein-1 (PEBP1), endogenous in PC12 cells (rat (endogenous in PC12)) (UniProt P31044).
T1 sequence: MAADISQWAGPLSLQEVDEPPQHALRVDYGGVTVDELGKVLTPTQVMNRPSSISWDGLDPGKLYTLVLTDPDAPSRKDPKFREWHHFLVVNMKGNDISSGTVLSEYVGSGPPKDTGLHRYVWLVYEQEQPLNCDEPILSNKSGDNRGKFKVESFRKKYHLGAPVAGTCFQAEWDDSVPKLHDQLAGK
The assay can be described thus: co-IP; PC12 cells overexpressing ALOX15-EGFP, untreated or after CORT treatment (200 μM) for 24 h; which protein was precipitated is not told.

Amino acid sequences for entries named in this document (tags omitted).
UniProt P30086: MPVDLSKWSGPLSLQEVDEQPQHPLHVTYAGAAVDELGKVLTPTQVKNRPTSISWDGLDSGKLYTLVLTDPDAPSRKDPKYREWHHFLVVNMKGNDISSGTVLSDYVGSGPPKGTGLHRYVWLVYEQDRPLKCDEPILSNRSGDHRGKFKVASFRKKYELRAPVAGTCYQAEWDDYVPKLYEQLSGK

Assay [2] addresses PEBP1-HA (phosphatidylethanolamine-binding protein-1), overexpressed in HEK-293 cells (UniProt P30086). The assay can be described thus: co-IP; HEK-293 cells overexpressing ALOX15-EGFP and PEBP1-HA; CORT 200 μM, leonurine 50 μM.
Assay [3] concerns the target T2, phosphatidylethanolamine-binding protein-1 (PEBP1), endogenous in mouse midbrain (mouse (endogenous in midbrain)) (UniProt P70296).
T2 sequence: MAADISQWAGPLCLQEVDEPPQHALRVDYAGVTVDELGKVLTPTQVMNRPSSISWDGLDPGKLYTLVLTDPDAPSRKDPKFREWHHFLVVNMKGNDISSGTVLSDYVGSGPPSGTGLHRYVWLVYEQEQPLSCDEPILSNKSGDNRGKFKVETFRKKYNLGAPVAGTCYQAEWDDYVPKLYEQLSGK
Put plainly: co-IP; midbrain of A53T mice, untreated or stressed, with or without Fer-1; A53T-AAV mice after stress or leonurine; which protein was precipitated is not told.

Results are given in words; binding and its absence hold for the method and conditions named. Binding seen in cells or lysates may run through a third protein. Some results given as binding are weak or reduced against the parent protein; the word gives no strength. For part of these data: Where a sequence is shown, tags or fusion partners need not be part of it.

B1: ALOX15-EGFP (15-lipoxygenase-1), overexpressed in PC12 cells (enzyme, UniProt P16050 1-662)
chain: MGLYRIRVSTGASLYAGSNNQVQLWLVGQHGEAALGKRLWPARGKETELKVEVPEYLGPLLFVKLRKRHLLKDDAWFCNWISVQGPGAGDEVRFPCYRWVEGNGVLSLPEGTGRTVGEDPQGLFQKHREEELEERRKLYRWGNWKDGLILNMAGAKLYDLPVDERFLEDKRVDFEVSLAKGLADLAIKDSLNVLTCWKDLDDFNRIFWCGQSKLAERVRDSWKEDALFGYQFLNGANPVVLRRSAHLPARLVFPPGMEELQAQLEKELEGGTLFEADFSLLDGIKANVILCSQQHLAAPLVMLKLQPDGKLLPMVIQLQLPRTGSPPPPLFLPTDPPMAWLLAKCWVRSSDFQLHELQSHLLRGHLMAEVIVVATMRCLPSIHPIFKLIIPHLRYTLEINVRARTGLVSDMGIFDQIMSTGGGGHVQLLKQAGAFLTYSSFCPPDDLADRGLLGVKSSFYAQDALRLWEIIYRYVEGIVSLHYKTDVAVKDDPELQTWCREITEIGLQGAQDRGFPVSLQARDQVCHFVTMCIFTCTGQHASVHLGQLDWYSWVPNAPCTMRLPPPTTKDATLETVMATLPNFHQASLQMSITWQLGRRQPVMVAVGQHEEEYFSGPEPKAVLKKFREELAALDKEIEIRNAKLDMPYEYLRPSVVENSVAI
As to B1, the binding result in assay [1] is given as “binds”.

B2: ALOX15-EGFP (15-lipoxygenase-1), overexpressed in HEK-293 cells (enzyme, UniProt P16050 1-662)
chain: B1 chain
On to B2, for which the binding result in assay [2] is “binds”.

B3: 15-lipoxygenase-1 (ALOX15), endogenous in mouse midbrain (enzyme, UniProt P39654 1-663)
chain: MGVYRIRVSTGDSVYAGSNNEVYLWLIGQHGEASLGKLFRPCRNSEAEFKVDVSEYLGPLLFVRVQKWHYLKEDAWFCNWISVKGPGDQGSEYTFPCYRWVQGTSILNLPEGTGCTVVEDSQGLFRNHREEELEERRSLYRWGNWKDGTILNVAATSISDLPVDQRFREDKRLEFEASQVLGTMDTVINFPKNTVTCWKSLDDFNYVFKSGHTKMAERVRNSWKEDAFFGYQFLNGANPMVLKRSTCLPARLVFPPGMEKLQAQLDEELKKGTLFEADFFLLDGIKANVILCSQQYLAAPLVMLKLQPDGQLLPIAIQLELPKTGSTPPPIFTPLDPPMDWLLAKCWVRSSDLQLHELQAHLLRGHLVAEVFAVATMRCLPSVHPVFKLLVPHLLYTMEINVRARSDLISERGFFDKVMSTGGGGHLDLLKQAGAFLTYSSLCPPDDLAERGLLDIDTCFYAKDALQLWQVMNRYVVGMFDLYYKTDQAVQDDYELQSWCQEITEIGLQGAQDRGFPTSLQSRAQACHFITMCIFTCTAQHSSIHLGQLDWFYWVPNAPCTMRLPPPKTKDATMEKLMATLPNPNQSTLQINVVWLLGRRQAVMVPLGQHSEEHFPNPEAKAVLKKFREELAALDKEIEIRNKSLDIPYEYLRPSLVENSVAI
Take B3: in assay [3], the binding entry is “binds”.
